# Test results published in PubChem BioAssay AID504834 (National Center for Advancing Translational Sciences (NCATS), 2011).
# Hit rate of the full screen: of about 320,000 compounds, about 22,000 (6.9%) were called active. This list was built around the results that the source calls inconclusive (neither active nor inactive); the mix of calls is not that of the screen. Calls follow the shape of the dose curve; as a rule, active = well fitted inhibition curve with a large enough effect; inconclusive = small, poorly fitted or top-dose-only effect, or another doubt; inactive = no such curve, though single readings can be large or run the other way. Where the call is inconclusive, the potency comes from a doubtful curve fit.
# Experiment: Primary qHTS for delayed death inhibitors of the malarial parasite plastid, 96 hour incubation
# Settings: P. falciparum luciferase reporter growth; series mostly up to 28.7 µM
# In short: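 Two-generation exposure (96 h) targets delayed-death phenotype. Reporter parasites carrying integrated firefly luciferase, in red cells at 2% hematocrit and 0.05% parasitemia final, kept at 37 C, 5% CO2; luminescence loss indicates inhibition.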
# Potency is read from the fitted curve at half-maximal effect.
row,SMILES,Potency
1,COc1ccccc1CN(C)C(=O)c1cccc(S(=O)(=O)N2CCc3ccccc3C2)c1,"inconclusive: 18.5 µM [inhibitor, single point]"
2,COc1ccc(NC(=O)COC(=O)c2c3c(nc4ccccc24)CCCC3)cc1,"inconclusive: 0.0828 µM [inhibitor, full curve, poor fit]"
3,O=C1c2cccc3cccc(c23)C(=O)N1Nc1ccccc1,"inconclusive: 18.5 µM [inhibitor, single point]"
4,Cc1ccc(NC(=O)C(=O)NCc2ccc(/C=C(/C#N)C(=O)NCc3cccnc3)o2)cc1C,inactive
5,CC(=O)c1ccc(NCCC(=O)c2ccccc2)cc1,inactive
6,COc1ccc(-n2c(Cc3cc(=O)[nH]c(=O)[nH]3)nnc2SCC(=O)Nc2cc(C(F)(F)F)ccc2Cl)cc1,"inconclusive: 0.294 µM [inhibitor, partial curve, poor fit]"
7,Cc1[nH]nc(SCC(=O)NC2CCCCC2)c1[N+](=O)[O-],"inconclusive: 18.5 µM [inhibitor, single point]"
8,C=CCNC(=O)c1ccccc1NC(=O)c1ccc(Cl)c(S(=O)(=O)Nc2cccc(C)c2C)c1,"inconclusive: 11.7 µM [inhibitor, single point]"
9,COCCN1C(=S)NC(c2cccc(C(F)(F)F)c2)C(C(=O)N2CCOCC2)=C1C (stereo not drawn),inactive
10,CN(Cc1cc2cc(F)ccc2[nH]1)Cc1nc(-c2cnccn2)no1,"inconclusive: 13.1 µM [inhibitor, single point]"
11,CC1=CC(=O)C=C(C)C1=NOc1ccccc1[N+](=O)[O-],"inconclusive: 3.29 µM [inhibitor, single point]"
12,CCCS(=O)(=O)N1CCC(C(=O)N2CCOCC2)CC1,"inconclusive: 11.7 µM [inhibitor, single point]"
13,Cc1ccc(N(C)C(=O)N2CCN(S(=O)(=O)c3c(C)cc(C)cc3C)CC2)cc1,"inconclusive: 18.5 µM [inhibitor, single point]"
14,CC(C)CN(C(=O)COC(=O)c1ccc(-c2ccccc2)cc1)C1CCS(=O)(=O)C1 (stereo not drawn),inactive
15,CC(C)c1ccc(CNc2nc3nc4c(c(=O)n3[nH]2)CCC4)cc1,"inconclusive: 11.7 µM [inhibitor, single point]"
16,CC(=O)c1cccc(NC(=O)CSc2nnc(C(C)N(C)C)n2Cc2ccccc2)c1 (stereo not drawn),"inconclusive: 10.4 µM [inhibitor, single point]"
17,CC(=O)c1ccc(NC(=S)NCc2ccc(Cl)cc2Cl)cc1,"inconclusive: 11.7 µM [inhibitor, single point]"
18,O=C(CN1CCN(c2ccccn2)CC1)Nc1cccc(Cl)c1Cl,"inconclusive: 7.38 µM [inhibitor, partial curve]"
19,Cc1cc(=O)c2c([nH]1)c(C)cc1[nH]c(C)c(C)c12,"inconclusive: 18.5 µM [inhibitor, single point]"
20,Cc1ccc(C)c(N2CCN(S(=O)(=O)c3c(C)[nH]c(C)c3C(=O)N3CCCCC3)CC2)c1,"inconclusive: 16.5 µM [inhibitor, single point]"
21,O=C(C1=C(O)C(=O)N(Cc2ccco2)C1c1ccccc1F)c1cccs1 (stereo not drawn),"inconclusive: 2.94 µM [inhibitor, partial curve, poor fit]"
22,O=C(CN1CCN(Cc2ccc(F)cc2)C1=O)NCc1cccs1,"inconclusive: 10.4 µM [inhibitor, single point]"

# In the list so far, 2 have a thiophene ring, fused or not.
row,SMILES,Potency
21,O=C(C1=C(O)C(=O)N(Cc2ccco2)C1c1ccccc1F)c1cccs1 (stereo not drawn),"inconclusive: 2.94 µM [inhibitor, partial curve, poor fit]"
22,O=C(CN1CCN(Cc2ccc(F)cc2)C1=O)NCc1cccs1,"inconclusive: 10.4 µM [inhibitor, single point]"

# Continued.

row,SMILES,Potency
1,COc1ccc(S(=O)(=O)N2CCOC23CCN(S(=O)(=O)c2ccc(C)cc2)CC3)cc1,"inconclusive: 9.28 µM [inhibitor, partial curve]"
2,COCCn1nnnc1C(c1ccccc1OC)N1CCN(C(=O)c2ccco2)CC1 (stereo not drawn),inactive
3,Cc1nnc(N(C)C(=O)c2ccccn2)s1,inactive
4,Cn1c(=O)c2c(nc(SCC(=O)c3cccs3)n2Cc2ccc(F)cc2)n(C)c1=O,"inconclusive: 18.5 µM [inhibitor, single point]"
5,CCc1noc(C)c1C(=O)OCC(=O)Nc1ncc(Cl)cc1Cl,inactive
6,CCOC(=O)NN1C(=O)c2ccccc2NC1c1ccccn1 (stereo not drawn),active: 10.4 µM
7,O=C1C(Cl)=C(NCC2CCCO2)C(=O)N1C1CCCCC1 (stereo not drawn),"inconclusive: 7.38 µM [inhibitor, partial curve, poor fit]"
8,COc1ccc(NC(=O)NCCN2C(=O)C3C4C=CC(C4)C3C2=O)cc1 (stereo not drawn),active: 11.7 µM
9,Cc1ccc(-n2nnnc2C(Cl)c2nnnn2-c2ccc(C)cc2)cc1,"inconclusive: 18.5 µM [inhibitor, single point]"
10,COCCn1cnc2c1c(=O)n(CC(=O)O)c(=O)n2Cc1ccccc1,"inconclusive: 3.29 µM [inhibitor, partial curve, poor fit]"
11,COc1ccc(N2CCN(C(=O)COCc3cc(-c4ccc5c(c4)OCO5)on3)CC2)cc1,"inconclusive: 14.7 µM [inhibitor, single point]"
12,Cc1nc([N+](=O)[O-])cn1CC(=O)c1ccc(Cl)cc1,inactive
13,O=C(Nc1ccc(OC(=O)N2CCCCC2)cc1)N1CCOCC1,inactive
14,O=C(C1=C(O)C(=O)N(CCN2CCOCC2)C1c1ccc(F)cc1)c1cc2ccccc2o1 (stereo not drawn),"inconclusive: 18.5 µM [inhibitor, single point]"
15,COc1ccc(CNC(=O)Nc2ccc(C)cc2C)cc1,inactive
16,CC(=O)Nc1ccc(NC(=O)CCC(=O)OCC(=O)c2ccc(F)cc2)cc1,inactive
17,Cc1c(C)n(CC(O)CNc2ccccc2)c2ccccc12 (stereo not drawn),"inconclusive: 13.1 µM [inhibitor, single point]"
18,CC1(C)CC(=O)/C(=C(\O)Cc2ccccc2)C(=NCCCCCC(=O)O)C1,"inconclusive: 10.4 µM [inhibitor, single point]"
19,Cc1ccc(CNC(=O)c2cccc(-n3cnnn3)c2)cc1,"inconclusive: 1.65 µM [inhibitor, single point]"
20,O=C1CC(=C2c3ccccc3-c3ccccc32)C(=O)N1CCCCN1CCN(c2ccccc2)CC1,active: 6.57 µM
21,Cc1ccc2c(Cl)c(C(=O)N/N=C/c3cccn3C)sc2c1,"inconclusive: 18.5 µM [inhibitor, single point]"
